Data from patent US20230158153A1, “PI3 KINASE INHIBITORS AND USES THEREOF” (Purdue Research Foundation, priority 2020, published 2023).
The match of structure and compound is tentative.

Sequences of proteins named here, by UniProt entry; tags and fusion partners are left off.
UniProt Q12884, whole entry: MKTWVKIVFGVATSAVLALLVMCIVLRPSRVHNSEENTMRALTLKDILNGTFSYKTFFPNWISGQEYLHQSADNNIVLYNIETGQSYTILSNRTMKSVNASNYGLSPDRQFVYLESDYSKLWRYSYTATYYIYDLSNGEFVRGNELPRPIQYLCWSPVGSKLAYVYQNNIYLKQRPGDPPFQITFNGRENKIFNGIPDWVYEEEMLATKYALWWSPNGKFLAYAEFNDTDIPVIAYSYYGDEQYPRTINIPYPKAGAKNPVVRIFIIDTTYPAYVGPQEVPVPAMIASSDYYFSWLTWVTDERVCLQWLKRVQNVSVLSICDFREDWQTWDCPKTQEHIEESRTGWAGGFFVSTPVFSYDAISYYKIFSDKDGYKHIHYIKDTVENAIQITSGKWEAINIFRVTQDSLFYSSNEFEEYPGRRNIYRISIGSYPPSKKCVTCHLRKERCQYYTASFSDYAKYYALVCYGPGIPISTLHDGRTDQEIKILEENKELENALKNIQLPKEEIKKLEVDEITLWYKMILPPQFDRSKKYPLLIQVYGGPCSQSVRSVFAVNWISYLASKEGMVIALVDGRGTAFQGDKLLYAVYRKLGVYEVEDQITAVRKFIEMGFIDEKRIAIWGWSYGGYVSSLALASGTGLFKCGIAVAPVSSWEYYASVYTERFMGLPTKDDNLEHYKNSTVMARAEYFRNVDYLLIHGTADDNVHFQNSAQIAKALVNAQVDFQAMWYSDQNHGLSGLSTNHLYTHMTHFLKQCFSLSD

Legend:
HLF-FAP cells = test: Live cell imaging of FAPL-fluorescein internalization; settings: 5 min vs. 30 min
Method: Confocal microscopy of human lung fibroblasts expressing fibroblast activation protein (HLF-FAP cells) expressing the late endosomal marker Rab7a conjugated with red fluorescent protein (Rab7a-RFP) incubated with FAPL-fluorescein and imaged 5 min (a-c) and 30 min (d-f) after FAPL-fluorescein addition. FAPL-fluorescein staining is shown in green, while Rab7a-RFP staining is shown in red. DRAQ5 nuclei staining is shown in blue. Colocalization of FAPL-fluorescein with Rab7a-RFP is shown in panels c and f (indicated in yellow).
(§1) To test the ability of this ligand to target drugs to myofibroblasts in fibrotic tissues, a FAP-targeting ligand (FAPL) was linked to fluorescein (FIG. 2A, upper structure) and its interaction with a stable human lung fibroblast cell line with FAP-expression (HLF-FAP) was examined.
HLF-hFAP cells were seeded in a glass-bottom dish and incubated overnight with endosome tracker (Rab7a-RFP, ThermoFisher). Cells were then incubated with FAPL-Fluorescein (10 nM) for 1 hour at 4° C., followed by staining with 5 nM DRAQ5 nuclear dye (ThermoFisher). After washing 3 times in PBS washes, spatial localization of FAPL-Fluorescein was monitored at any given time under ambient temperature by confocal microscopy (FV 1000, Olympus). Confocal images were further processed using FV10-ASW Olympus software.

human FAP (hFAP) = human FAP (hFAP) (Homo sapiens, UniProt Q12884); test: FAPL-fluorescein binding to HLF cells before and after transfection with human FAP
Source text: as §1

[1] = system: FAP on fibroblasts from an IPF patient; test: FAPL-fluorescein uptake by primary human lung fibroblasts (IPF vs non-IPF)
Source text: Comparison of FAPL-Fluorescein uptake by non-IPF (upper row; control) and IPF (lower row) HFL. Binding of FAPL-fluorescein and expression of alpha smooth muscle actin (αSMA), a fibroblast activation marker, are shown in green and red, respectively. The merging of the two markers is shown in pink (right column).
To determine whether FAPL-mediated drug delivery can occur in a more IPF-relevant cell type, FAPL-fluorescein uptake by primary human lung fibroblasts obtained from IPF patients was examined next.
HLF cells, primary human IPF fibroblasts and non-IPF fibroblasts were cultured, fixed, and permeabilized on glass-bottom dishes for immunofluorescent staining. Primary antibodies against hFAP (1:200, FAB3715R, R&D Systems) or αSMA (1:1000, ab21027, Abcam) were incubated overnight at 4° C. After PBS washes, samples were incubated with Alexa Fluor® 488-labeled secondary anti-goat antibodies (Abcam, 1:400). Images were captured and analyzed by confocal microscopy.

C[C@H](NC(=O)c1ccnc(CNC(=O)CCC(=O)NC(CSC2CC(=O)N(c3ccc(-c4c5ccc(=O)cc-5oc5cc(O)ccc45)c(C(=O)O)c3)C2=O)C(=O)O)c1)C(=O)N1CC(F)(F)C[C@H]1C#N (stereo partly drawn)
binding and internalization (HLF-FAP cells): rapidly internalize into Rab7a-expressing endosomes | binding to FAP with co-administration of excess FAPL (human FAP (hFAP); HLF-FAP cells, excess FAPL): largely prevented by co-administration of excess FAPL | binding to HLF cells not transfected with FAP (human FAP (hFAP); non-transfected HLF cells): minimal | Kd (human FAP (hFAP); read-out: Kd of binding to FAP, HLF-FAP cells): 10 nM | uptake by control fibroblasts ([1]; control fibroblasts from human lung explants): little uptake | binding to IPF fibroblasts ([1]; primary human lung fibroblasts from IPF patients): binds to IPF fibroblasts
